# From PubChem BioAssay AID1487 (National Center for Advancing Translational Sciences (NCATS), 2009)
# The list shows a part of the results. These are further read-outs of the screen, such as a control signal, another cell line or another target. No call is given for them. Compounds called inactive in the main read-out are mostly missing here. Potencies come from curve fits of mixed quality, noted in brackets.
# Assay: qHTS Assay for Modulators of Lamin A Splicing
# Settings: HeLa LMNA splicing GFP/RFP minigene ratio, 48 h
# In short: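 S3 HeLa stable clones carrying a lamin A-EGFP splicing minigene plus DsRed2 were seeded at 600 cells/well in Opti-MEM with 2% FBS, pin-dosed and incubated 48 h at 37°C. Acumen cytometry (488 nm) gave the GFP/RFP total-intensity ratio.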
# [1] = measured here: RFP viability control channel
# [2] = measured here: GFP splicing reporter channel
SMILES,AC50 [1],AC50 [2]
O=C(N/N=C/c1ccc(Sc2ccccn2)o1)c1cc2ccccc2cc1O,"22.4 µM [rising, single point]",
O=C1c2cccc3cccc(c23)C(=O)N1Cc1ccccc1,,"0.501 µM [rising, full curve, poor fit]"
CC(C)c1ccc(OCc2ccc(C(=O)N3CCN(c4ccccn4)CC3)cc2)cc1,"25.1 µM [falling, single point]","35.5 µM [falling, single point]"
CCCC(=O)N(c1ccc2oc(=O)sc2c1)S(=O)(=O)c1cccs1,"3.98 µM [rising, partial curve]",
CC1=C(C(=O)Nc2cc(Cl)ccc2C)C(c2sccc2C)n2ncnc2N1 (stereo not given),"28.2 µM [rising, partial curve]",
COc1cccc(S(=O)(=O)NCc2ccc(C(=O)Nc3ccc(Cl)c(Cl)c3)cc2)c1,"5.01 µM [rising, single point]",
CCc1ccc(NC(=O)CSc2nc3ccccc3c(=O)n2CCCC(=O)NCCCN2CCOCC2)cc1,"22.4 µM [falling, partial curve, poor fit]",
O=C(Nc1ccn(Cc2ccc(Cl)cc2)n1)c1ccc2c(c1)OCO2,"22.4 µM [rising, single point]","12.6 µM [rising, partial curve, poor fit]"
COc1ccccc1CNC(=O)COC(=O)c1ccc(S(=O)(=O)N2CCCC2)cc1,"2.82 µM [rising, partial curve]","1.12 µM [rising, full curve]"
O=C(Nc1ccc(Cl)c(Cl)c1)Nc1ccccc1NS(=O)(=O)c1cccs1,"25.1 µM [rising, single point]",
CC(C)(C)c1ccc2c(c1)N(CC(=O)NCCCN1CCN(c3ccccc3F)CC1)C(=O)CO2,"0.355 µM [falling, partial curve, poor fit]","2.24 µM [falling, single point]"
CC(=O)N1CC(=O)N=C1SCC(=O)Nc1nc(-c2ccccc2)c(-c2ccccc2)s1,"14.1 µM [rising, single point]",
CC1CCN(C(=O)CSc2nc(N)c3c4c(sc3n2)CN(C)CC4)CC1,,"31.6 µM [rising, single point]"
O=C(CN1C(=O)C2(SCC(=O)N2c2cccc(Cl)c2)c2ccccc21)NCc1ccccc1 (stereo not given),"11.2 µM [rising, partial curve]","3.16 µM [rising, full curve]"
CC(C)(C)c1ccc(/C=C2\SC(=O)N(CCNC(=O)c3cccc(S(=O)(=O)N4CCOCC4)c3)C2=O)cc1,"14.1 µM [rising, partial curve]",

# Single values from the results shown.
# O=C(Nc1ccc(Cl)c(Cl)c1)Nc1ccccc1NS(=O)(=O)c1cccs1 | AC50 [1]: 25.1 µM [rising, single point]
# CC1=C(C(=O)Nc2cc(Cl)ccc2C)C(c2sccc2C)n2ncnc2N1 (stereo not given) | AC50 [1]: 28.2 µM [rising, partial curve]
